No signal at the amounts used counts as a negative.
Tested on: Flag-RBPJ (mouse)
Test: EMSA
Settings: 1 nM DNA, little or no binding up to 200 nM RBPJ; 12 mM Hepes pH 7.9, 10 mM Tris-HCl pH 7.5, 60 mM KCl, 8% glycerol, 4 mM MgCl2, 0.02% NP40, 30 C; 5% PAGE 0.5x TBE; recombinant protein; residues 1-487; protein details: Flag; label: 32P (T4 PNK)

Chains of the proteins cited; added tags and fusions are not shown. Chains listed by the source or under a name are the forms on record and can include a tag or linker.
Flag-RBPJ (mouse), one chain, as listed by the source: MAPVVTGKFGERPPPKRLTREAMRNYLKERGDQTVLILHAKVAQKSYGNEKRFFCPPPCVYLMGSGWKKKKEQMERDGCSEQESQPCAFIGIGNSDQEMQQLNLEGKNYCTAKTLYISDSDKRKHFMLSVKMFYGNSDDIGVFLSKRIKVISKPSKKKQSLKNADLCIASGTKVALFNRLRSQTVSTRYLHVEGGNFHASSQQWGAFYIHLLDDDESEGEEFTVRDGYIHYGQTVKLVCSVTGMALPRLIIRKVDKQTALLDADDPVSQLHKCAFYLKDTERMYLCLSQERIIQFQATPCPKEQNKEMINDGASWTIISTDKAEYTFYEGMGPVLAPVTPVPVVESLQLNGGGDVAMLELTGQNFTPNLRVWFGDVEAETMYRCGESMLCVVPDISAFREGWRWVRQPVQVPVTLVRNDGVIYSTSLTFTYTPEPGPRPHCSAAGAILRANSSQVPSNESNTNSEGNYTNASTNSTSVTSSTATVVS

## GGCCACTAGGGGGCGC (double strand) [16 bp CTCF motif DNA]
  binding result: no binding
